Experimental data taken from the supplement of paper PMC12823440, “Inhibitors supercharge kinase turnover through native proteolytic circuits” (Nature, 2025).
The other results are listed elsewhere or left out. Hit calls seldom repeat between salt and free forms of one compound.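 In K562 cells expressing nanoluciferase-fused kinases, luminescence was recorded at 4 h intervals between 2 and 18 h, normalized as percent of control with DMSO at 100% and a positive control at 0%. A significant (2 sigma) signal drop marks a time point as decreased. The authors' rule for a hit is not shown and takes in more than the number of time points.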

Amino acid sequences for entries named in this document (tags omitted). A change or cut given only in a name is not applied to a line headed by its entry.
UniProt Q00535, whole entry, looked up: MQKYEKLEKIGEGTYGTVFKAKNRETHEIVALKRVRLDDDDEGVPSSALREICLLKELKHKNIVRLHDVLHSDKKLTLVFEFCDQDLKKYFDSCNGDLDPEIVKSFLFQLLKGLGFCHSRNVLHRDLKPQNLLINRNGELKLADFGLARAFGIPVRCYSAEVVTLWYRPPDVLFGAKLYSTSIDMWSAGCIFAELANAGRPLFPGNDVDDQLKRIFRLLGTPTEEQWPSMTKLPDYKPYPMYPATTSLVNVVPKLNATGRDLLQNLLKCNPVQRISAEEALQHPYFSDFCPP
UniProt P42356, whole entry, looked up: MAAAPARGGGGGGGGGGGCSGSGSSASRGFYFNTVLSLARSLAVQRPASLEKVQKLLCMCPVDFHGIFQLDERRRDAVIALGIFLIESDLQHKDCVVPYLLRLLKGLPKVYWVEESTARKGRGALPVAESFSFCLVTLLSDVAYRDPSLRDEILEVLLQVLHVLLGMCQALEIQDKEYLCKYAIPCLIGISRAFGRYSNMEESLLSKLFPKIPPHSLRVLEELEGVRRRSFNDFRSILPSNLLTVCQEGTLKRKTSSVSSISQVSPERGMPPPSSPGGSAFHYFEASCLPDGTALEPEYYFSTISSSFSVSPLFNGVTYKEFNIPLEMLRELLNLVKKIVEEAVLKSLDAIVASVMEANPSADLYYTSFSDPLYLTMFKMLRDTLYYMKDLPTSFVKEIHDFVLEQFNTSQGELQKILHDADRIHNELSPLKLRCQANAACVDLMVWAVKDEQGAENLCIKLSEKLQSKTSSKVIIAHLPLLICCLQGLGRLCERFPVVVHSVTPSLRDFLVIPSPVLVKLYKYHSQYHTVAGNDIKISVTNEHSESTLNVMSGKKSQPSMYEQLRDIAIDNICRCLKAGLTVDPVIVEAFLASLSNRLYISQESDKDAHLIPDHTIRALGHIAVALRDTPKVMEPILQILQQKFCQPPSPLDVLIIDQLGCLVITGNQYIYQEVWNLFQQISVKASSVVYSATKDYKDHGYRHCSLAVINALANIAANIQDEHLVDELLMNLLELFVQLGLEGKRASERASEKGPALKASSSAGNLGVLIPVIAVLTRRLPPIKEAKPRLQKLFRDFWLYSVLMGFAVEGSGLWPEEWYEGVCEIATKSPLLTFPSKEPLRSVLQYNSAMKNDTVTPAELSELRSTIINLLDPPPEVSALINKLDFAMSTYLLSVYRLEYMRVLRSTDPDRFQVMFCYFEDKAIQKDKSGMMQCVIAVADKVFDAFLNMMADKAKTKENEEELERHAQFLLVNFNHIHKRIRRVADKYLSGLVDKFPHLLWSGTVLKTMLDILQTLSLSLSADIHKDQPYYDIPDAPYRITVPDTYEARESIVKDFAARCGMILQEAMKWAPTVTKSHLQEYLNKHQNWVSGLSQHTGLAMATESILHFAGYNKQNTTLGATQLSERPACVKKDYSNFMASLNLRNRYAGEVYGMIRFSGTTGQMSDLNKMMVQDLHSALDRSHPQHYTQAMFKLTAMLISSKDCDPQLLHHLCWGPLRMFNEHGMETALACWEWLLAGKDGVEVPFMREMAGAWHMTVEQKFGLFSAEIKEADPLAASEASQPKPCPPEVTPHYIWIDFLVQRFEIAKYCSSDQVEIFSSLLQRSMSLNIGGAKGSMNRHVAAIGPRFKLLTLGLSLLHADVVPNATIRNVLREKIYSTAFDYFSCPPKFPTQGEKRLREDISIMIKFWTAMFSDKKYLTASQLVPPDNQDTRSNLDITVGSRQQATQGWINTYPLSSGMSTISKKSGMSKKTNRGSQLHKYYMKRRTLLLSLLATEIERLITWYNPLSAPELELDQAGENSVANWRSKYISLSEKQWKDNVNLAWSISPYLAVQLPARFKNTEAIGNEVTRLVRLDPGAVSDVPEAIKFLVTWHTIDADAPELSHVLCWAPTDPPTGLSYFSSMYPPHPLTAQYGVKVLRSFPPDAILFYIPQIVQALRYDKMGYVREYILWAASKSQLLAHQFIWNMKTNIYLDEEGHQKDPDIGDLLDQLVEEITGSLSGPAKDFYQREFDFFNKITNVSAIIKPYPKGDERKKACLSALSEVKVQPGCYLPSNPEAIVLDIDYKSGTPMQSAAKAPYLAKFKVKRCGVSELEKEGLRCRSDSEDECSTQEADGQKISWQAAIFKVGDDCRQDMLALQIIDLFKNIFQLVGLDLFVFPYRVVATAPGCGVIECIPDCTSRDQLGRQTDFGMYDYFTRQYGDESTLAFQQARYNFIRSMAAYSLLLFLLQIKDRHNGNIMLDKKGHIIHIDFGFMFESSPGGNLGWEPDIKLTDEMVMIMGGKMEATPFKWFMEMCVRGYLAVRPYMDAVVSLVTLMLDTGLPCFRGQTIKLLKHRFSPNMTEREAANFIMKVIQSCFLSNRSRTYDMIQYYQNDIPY
UniProt Q13131: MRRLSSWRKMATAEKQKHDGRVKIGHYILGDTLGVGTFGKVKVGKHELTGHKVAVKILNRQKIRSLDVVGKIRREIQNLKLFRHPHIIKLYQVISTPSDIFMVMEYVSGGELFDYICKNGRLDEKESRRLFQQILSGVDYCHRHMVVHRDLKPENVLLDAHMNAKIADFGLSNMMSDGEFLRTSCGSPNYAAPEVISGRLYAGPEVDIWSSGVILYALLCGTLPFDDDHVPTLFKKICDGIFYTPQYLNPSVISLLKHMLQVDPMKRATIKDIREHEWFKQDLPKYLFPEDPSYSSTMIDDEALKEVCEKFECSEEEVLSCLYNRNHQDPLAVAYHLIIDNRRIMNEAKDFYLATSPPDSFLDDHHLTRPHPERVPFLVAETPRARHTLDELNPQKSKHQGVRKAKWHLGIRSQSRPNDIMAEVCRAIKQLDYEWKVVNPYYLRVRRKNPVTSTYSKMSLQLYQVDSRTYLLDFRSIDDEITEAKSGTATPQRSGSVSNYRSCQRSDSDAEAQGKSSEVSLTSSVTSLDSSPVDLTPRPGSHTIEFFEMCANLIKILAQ
UniProt P23458: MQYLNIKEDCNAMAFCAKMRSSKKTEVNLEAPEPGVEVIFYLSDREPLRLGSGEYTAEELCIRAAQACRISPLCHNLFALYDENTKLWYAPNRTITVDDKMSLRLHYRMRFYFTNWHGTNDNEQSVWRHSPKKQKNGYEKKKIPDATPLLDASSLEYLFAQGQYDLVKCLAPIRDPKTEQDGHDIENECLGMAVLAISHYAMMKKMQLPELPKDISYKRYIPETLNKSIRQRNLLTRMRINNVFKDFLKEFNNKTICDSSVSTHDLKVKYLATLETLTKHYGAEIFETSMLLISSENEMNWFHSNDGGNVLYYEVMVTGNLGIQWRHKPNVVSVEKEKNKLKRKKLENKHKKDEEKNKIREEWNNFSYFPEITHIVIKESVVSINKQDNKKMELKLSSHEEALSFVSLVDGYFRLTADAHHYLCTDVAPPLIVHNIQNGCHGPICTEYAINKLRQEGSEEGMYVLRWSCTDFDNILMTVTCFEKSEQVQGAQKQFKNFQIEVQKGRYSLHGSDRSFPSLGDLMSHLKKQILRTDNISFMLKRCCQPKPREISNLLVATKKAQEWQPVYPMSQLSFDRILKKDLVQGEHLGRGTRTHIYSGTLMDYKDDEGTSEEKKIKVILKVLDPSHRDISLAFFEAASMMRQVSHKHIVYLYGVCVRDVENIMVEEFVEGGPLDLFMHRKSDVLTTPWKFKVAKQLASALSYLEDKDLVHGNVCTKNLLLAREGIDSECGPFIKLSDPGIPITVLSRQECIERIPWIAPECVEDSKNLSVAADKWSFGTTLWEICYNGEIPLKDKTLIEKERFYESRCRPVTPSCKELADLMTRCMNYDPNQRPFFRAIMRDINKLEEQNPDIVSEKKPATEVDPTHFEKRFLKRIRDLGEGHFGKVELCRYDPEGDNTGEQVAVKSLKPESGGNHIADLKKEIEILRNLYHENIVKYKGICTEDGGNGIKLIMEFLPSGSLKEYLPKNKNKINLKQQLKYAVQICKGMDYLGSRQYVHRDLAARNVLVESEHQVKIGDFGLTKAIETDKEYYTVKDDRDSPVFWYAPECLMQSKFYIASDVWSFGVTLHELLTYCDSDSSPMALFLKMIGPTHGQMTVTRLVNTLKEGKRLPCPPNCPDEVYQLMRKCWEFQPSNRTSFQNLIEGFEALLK
UniProt Q9NYA1, whole entry: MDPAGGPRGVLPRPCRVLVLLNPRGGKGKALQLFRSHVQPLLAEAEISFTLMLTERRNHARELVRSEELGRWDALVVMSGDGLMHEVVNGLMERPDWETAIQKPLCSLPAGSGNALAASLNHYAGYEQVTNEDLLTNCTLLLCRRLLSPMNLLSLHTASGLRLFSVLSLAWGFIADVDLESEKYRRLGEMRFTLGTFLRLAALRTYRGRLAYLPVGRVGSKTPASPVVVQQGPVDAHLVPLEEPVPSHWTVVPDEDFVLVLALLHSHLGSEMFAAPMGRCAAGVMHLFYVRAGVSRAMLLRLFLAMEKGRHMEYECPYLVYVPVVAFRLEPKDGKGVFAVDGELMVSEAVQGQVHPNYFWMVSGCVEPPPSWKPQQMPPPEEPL
UniProt P00519, whole entry: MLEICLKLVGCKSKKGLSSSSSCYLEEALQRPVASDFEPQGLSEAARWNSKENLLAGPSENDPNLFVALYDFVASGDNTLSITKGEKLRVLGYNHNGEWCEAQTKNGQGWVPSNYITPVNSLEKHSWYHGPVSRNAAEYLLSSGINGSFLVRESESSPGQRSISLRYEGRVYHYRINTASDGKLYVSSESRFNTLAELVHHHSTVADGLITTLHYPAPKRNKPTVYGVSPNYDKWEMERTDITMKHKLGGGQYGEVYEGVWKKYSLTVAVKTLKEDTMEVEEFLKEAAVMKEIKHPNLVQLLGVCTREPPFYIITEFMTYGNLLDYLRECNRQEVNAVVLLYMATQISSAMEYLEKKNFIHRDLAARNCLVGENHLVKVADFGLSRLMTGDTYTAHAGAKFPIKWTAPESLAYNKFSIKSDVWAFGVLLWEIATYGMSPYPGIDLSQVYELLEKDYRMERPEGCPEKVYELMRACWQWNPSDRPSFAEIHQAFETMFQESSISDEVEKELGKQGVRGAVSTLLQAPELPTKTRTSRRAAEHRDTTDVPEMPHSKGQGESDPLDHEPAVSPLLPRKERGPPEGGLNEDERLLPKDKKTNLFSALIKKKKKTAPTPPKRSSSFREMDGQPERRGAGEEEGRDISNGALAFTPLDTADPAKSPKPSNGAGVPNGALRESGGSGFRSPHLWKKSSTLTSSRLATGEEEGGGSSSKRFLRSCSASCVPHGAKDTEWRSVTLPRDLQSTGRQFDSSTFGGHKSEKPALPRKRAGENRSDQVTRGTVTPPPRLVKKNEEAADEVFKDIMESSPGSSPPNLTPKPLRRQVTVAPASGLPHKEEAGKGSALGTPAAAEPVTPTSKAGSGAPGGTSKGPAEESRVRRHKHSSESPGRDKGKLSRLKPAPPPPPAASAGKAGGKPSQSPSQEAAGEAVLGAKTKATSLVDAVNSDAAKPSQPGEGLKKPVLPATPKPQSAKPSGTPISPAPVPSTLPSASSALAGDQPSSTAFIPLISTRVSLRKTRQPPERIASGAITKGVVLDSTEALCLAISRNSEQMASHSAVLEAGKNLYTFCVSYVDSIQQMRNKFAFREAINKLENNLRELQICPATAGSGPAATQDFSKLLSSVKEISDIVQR
UniProt P22607, whole entry, looked up: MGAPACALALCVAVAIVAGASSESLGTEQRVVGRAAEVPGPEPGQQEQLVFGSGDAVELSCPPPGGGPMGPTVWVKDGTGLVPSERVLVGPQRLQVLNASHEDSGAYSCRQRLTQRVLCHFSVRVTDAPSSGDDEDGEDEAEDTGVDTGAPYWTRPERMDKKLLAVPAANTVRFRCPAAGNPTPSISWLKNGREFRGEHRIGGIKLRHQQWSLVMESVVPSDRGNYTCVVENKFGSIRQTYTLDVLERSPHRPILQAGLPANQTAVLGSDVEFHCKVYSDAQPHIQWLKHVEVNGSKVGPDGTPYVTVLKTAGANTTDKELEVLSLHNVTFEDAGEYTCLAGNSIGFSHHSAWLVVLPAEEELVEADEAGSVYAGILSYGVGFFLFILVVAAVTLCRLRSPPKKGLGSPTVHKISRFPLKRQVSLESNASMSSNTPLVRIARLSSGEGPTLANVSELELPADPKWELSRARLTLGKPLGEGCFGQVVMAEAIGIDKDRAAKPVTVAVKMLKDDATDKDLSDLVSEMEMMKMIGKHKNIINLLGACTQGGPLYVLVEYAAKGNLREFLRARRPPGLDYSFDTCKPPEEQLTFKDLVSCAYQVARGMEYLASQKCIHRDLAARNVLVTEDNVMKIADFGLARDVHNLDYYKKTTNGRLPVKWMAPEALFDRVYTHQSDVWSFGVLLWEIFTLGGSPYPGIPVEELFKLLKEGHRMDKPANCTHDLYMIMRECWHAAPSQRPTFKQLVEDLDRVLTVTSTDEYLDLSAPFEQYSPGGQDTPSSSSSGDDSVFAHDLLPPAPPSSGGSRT

How the values were obtained:
Assay in all cases: number of time points (of 5) at which kinase-Nluc abundance scored as decreased, DMSO-normalised (count); higher = more persistent destabilization
[1] = compound: C=CC(=O)N(C)CCOc1c(N)ncnc1-c1cc(F)cc(NC(=O)c2ccc(C3CC3)cc2F)c1C [Remibrutinib]; details: 10 µM; K562; 2-18 h
[2] = compound: C=CC(=O)N1CCC([C@@H]2CCNc3c(C(N)=O)c(-c4ccc(Oc5ccccc5)cc4)nn32)CC1 [Zanubrutinib]; details: 10 µM; K562; 2-18 h
[3] = compound: C=CC(=O)N1CCC[C@@H](n2nc(-c3ccc(Oc4ccccc4)cc3)c3c(N)ncnc32)C1 [Ibrutinib]; details: 2.5 µM; K562; 2-18 h
[4] = compound: C=CC(=O)N1C[C@@H](Nc2ncnc3[nH]ccc23)CC[C@H]1C [(2R,5S)-Ritlecitinib]; details: 10 µM; K562; 2-18 h
[5] = compound: C=CC(=O)Nc1cc2c(Nc3ccc(F)c(Cl)c3)ncnc2cc1OCCCN1CCOCC1 [Canertinib (dihydrochloride)]; details: 2.5 µM; K562; 2-18 h
[6] = compound: C=CC(=O)Nc1cc2c(Nc3ccc(F)c(Cl)c3)ncnc2cc1OCCCN1CCOCC1 [Canertinib]; details: 10 µM; K562; 2-18 h
[7] = compound: CC#CC(=O)N1CCC[C@H]1c1nc(-c2ccc(C(=O)Nc3ccccn3)cc2)c2c(N)nccn12 [Acalabrutinib]; details: 10 µM; K562; 2-18 h
[8] = compound: CC(=O)c1c(C)c2cnc(Nc3ccc(N4CCN(C(=O)CCCCCC(=O)N[C@H](C(=O)N5C[C@H](O)C[C@H]5C(=O)NCc5ccc(-c6scnc6C)cc5)C(C)(C)C)CC4)cn3)nc2n(C2CCCC2)c1=O; details: 2.5 µM; K562; 2-18 h
[9] = compound: CC(C)(C)n1nc(-c2ccc(Cl)cc2)c2c(N)ncnc21; details: 10 µM; K562; 2-18 h

Measured: number of time points

CDK5 (UniProt Q00535)
0: all assays above

PIK4CA (UniProt P42356)
0: all assays above

LIMK2 (UniProt P53671)
0: all assays above

PRKAA1 (UniProt Q13131)
0: all assays above

PDK1 (UniProt Q15118)
0: all assays above

JAK1 (UniProt P23458)
0: all assays above

STK38 (UniProt Q15208)
0: all assays above

SPHK1 (UniProt Q9NYA1)
0: all assays above

CSNK1A1 (UniProt P48729)
4: [6]
0: all other assays above

FGFR1 (UniProt P11362)
not listed: [8]
0: all other assays above

HER2 (UniProt P04626)
not listed: [5] | [6]
0: all other assays above

AURKA (UniProt O14965)
not listed: [8]
0: all other assays above

LCK (UniProt P06239)
not listed: [5] | [6] | [9]
0: all other assays above

ABL1 (UniProt P00519)
0: [1] | [2] | [3] | [4] | [7]

FGFR3 (UniProt P22607)
not listed: [8]
0: all other assays above

RET (UniProt P07949)
not listed: [8]
0: all other assays above

RET_M918T (clone: RET_mut) (UniProt P07949)
not listed: [8]
0: all other assays above

SRC (UniProt P12931)
not listed: [3]
0: all other assays above

DDR1 (UniProt Q08345)
not listed: [8]
0: all other assays above
